From doi:10.1101/2024.06.19.599365 come the findings set out here.

Sequences of proteins named here, by UniProt entry; tags and fusion partners are left off.
UniProt P38398: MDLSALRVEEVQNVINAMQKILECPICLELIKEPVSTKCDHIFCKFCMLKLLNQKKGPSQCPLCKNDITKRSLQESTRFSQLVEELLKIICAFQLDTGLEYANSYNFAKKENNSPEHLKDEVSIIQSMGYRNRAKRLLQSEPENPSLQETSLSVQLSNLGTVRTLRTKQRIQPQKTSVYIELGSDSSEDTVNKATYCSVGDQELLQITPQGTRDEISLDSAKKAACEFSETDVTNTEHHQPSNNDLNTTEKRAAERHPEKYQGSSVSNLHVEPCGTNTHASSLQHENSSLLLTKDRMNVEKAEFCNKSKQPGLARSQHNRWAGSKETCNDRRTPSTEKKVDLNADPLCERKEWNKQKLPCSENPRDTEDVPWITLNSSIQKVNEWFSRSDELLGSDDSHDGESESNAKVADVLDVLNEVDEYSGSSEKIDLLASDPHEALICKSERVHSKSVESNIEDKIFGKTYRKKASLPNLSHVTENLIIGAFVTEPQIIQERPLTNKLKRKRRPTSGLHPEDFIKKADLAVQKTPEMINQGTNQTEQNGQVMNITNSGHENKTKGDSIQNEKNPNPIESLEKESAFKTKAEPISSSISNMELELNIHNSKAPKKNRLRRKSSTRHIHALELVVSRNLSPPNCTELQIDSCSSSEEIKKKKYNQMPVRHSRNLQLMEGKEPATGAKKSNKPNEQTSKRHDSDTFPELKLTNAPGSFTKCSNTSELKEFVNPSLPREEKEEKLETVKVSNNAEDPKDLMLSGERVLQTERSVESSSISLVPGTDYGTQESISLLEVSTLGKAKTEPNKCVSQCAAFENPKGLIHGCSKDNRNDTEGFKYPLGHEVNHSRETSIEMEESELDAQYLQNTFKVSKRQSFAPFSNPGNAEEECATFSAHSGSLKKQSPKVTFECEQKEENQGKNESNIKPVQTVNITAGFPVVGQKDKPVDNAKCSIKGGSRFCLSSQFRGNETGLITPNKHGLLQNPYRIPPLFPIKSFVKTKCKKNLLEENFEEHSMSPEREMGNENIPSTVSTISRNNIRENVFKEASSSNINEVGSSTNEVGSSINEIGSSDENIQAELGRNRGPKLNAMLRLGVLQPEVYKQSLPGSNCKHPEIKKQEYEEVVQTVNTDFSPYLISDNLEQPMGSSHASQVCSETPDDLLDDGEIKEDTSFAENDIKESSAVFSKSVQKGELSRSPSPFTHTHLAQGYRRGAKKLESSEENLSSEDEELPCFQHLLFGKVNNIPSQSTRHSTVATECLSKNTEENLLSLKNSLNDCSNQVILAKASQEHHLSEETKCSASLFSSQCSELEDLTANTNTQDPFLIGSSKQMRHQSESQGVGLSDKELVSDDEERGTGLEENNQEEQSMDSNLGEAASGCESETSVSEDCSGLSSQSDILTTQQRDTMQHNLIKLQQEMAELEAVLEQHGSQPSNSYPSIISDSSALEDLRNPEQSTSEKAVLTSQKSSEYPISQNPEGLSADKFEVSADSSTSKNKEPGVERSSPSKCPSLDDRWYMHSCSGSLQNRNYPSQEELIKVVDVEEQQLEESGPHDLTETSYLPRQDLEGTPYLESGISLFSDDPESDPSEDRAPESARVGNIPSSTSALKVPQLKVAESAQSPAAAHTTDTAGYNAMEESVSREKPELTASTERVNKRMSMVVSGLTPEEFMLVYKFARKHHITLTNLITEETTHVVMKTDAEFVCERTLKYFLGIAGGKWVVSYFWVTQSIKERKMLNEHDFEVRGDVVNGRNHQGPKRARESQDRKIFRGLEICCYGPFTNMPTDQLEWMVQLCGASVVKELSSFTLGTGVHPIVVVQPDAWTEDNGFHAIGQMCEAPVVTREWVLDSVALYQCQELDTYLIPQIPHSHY
UniProt Q9UBL3: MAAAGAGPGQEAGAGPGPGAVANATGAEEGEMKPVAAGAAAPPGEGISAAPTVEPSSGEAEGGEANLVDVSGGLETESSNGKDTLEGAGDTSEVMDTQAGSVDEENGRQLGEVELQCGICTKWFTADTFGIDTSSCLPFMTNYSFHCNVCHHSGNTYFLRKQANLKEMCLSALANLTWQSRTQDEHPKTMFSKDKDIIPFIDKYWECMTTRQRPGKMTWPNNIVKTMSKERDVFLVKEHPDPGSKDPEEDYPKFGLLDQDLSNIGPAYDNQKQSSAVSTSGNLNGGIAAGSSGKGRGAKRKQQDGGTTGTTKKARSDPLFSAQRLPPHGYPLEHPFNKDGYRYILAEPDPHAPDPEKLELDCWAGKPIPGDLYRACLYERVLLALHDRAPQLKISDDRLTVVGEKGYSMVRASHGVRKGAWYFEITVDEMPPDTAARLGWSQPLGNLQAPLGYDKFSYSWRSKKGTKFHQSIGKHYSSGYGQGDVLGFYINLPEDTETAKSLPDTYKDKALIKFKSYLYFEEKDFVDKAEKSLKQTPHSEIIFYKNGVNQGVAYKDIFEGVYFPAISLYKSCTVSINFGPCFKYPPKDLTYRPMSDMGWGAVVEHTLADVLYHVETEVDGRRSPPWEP
UniProt Q15291: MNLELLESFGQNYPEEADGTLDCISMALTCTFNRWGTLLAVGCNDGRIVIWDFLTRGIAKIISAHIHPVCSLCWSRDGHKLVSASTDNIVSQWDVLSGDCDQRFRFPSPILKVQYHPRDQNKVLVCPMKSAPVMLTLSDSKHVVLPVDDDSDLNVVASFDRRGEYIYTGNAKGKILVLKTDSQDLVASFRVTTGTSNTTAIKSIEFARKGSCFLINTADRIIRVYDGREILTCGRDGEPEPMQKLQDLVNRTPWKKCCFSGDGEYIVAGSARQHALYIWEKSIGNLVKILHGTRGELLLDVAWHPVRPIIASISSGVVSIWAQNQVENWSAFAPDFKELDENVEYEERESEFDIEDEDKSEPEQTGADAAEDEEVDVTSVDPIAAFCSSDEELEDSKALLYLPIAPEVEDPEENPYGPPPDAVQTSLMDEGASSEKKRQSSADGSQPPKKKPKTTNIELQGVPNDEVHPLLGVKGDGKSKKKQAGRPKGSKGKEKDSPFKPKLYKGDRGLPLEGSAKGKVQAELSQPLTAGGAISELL
UniProt Q8N122: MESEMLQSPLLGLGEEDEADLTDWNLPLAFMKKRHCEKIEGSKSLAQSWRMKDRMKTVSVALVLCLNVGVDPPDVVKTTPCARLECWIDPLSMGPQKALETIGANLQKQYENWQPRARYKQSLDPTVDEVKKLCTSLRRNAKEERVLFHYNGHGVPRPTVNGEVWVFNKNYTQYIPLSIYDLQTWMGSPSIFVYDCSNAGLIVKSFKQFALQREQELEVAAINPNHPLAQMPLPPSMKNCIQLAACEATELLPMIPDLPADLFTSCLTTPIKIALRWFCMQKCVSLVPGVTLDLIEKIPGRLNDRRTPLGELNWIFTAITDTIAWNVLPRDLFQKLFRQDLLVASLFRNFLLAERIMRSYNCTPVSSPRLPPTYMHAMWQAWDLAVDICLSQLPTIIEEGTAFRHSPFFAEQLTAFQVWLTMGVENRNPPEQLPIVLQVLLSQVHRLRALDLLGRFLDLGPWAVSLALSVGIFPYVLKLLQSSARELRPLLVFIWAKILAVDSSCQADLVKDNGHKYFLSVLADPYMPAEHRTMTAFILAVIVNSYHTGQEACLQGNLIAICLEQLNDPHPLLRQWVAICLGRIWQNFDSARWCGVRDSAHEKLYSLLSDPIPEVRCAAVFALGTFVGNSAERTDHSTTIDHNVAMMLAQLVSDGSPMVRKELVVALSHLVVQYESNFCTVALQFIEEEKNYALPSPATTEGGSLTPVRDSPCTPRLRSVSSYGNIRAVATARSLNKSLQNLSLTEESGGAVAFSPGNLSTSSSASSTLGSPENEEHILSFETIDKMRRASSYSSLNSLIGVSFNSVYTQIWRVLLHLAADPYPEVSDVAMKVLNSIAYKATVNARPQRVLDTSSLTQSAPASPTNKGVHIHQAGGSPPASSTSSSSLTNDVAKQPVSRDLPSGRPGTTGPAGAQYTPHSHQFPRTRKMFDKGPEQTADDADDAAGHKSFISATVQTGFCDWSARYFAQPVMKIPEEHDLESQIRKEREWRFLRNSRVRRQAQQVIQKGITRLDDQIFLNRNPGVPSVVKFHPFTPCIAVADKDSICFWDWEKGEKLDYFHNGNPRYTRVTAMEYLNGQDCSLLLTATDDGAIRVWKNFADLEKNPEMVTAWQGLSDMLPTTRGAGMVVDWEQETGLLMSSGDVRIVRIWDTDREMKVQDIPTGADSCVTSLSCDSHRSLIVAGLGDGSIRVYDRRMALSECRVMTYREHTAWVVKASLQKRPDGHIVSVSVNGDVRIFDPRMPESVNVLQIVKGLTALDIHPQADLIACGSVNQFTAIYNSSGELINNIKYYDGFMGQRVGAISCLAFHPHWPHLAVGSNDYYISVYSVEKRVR

Results are given in words; binding and its absence hold for the method and conditions named. In cells and extracts the contact can be indirect. Some results given as binding are weak or reduced against the parent protein; the word gives no strength.

The target of the test is BRCA1 (human (endogenous in PC3 and LNCaP)) (UniProt P38398). The experiment in a line: co-IP.
Take ASH2L (from UniProt Q9UBL3 1-628): the binding result is “binds”.

As to RBBP5 (from UniProt Q15291 1-538), the binding result is “binds”.

In the case of “Raptor (from UniProt Q8N122 1-1335) (other; other documents disagree on this pair)”, the binding result is given as “binds”.
